These results are taken from PMC11516157.

Protein sequences, listed by entry. Tags and fused reporters are not part of them. Lines headed by an entry give the natural chain unless they say otherwise; changes in a name come on top.
UniProt P12643: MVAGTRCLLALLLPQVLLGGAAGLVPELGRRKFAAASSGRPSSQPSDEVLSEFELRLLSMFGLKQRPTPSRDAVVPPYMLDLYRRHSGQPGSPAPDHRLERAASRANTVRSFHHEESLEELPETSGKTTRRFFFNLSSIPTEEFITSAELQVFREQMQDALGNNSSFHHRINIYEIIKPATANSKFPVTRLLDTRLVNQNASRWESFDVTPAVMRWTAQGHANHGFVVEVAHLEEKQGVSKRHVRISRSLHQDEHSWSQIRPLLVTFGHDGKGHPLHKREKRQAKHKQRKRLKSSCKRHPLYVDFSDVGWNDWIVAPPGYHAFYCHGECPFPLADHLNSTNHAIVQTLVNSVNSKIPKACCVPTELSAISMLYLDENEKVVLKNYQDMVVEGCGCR
UniProt P46934: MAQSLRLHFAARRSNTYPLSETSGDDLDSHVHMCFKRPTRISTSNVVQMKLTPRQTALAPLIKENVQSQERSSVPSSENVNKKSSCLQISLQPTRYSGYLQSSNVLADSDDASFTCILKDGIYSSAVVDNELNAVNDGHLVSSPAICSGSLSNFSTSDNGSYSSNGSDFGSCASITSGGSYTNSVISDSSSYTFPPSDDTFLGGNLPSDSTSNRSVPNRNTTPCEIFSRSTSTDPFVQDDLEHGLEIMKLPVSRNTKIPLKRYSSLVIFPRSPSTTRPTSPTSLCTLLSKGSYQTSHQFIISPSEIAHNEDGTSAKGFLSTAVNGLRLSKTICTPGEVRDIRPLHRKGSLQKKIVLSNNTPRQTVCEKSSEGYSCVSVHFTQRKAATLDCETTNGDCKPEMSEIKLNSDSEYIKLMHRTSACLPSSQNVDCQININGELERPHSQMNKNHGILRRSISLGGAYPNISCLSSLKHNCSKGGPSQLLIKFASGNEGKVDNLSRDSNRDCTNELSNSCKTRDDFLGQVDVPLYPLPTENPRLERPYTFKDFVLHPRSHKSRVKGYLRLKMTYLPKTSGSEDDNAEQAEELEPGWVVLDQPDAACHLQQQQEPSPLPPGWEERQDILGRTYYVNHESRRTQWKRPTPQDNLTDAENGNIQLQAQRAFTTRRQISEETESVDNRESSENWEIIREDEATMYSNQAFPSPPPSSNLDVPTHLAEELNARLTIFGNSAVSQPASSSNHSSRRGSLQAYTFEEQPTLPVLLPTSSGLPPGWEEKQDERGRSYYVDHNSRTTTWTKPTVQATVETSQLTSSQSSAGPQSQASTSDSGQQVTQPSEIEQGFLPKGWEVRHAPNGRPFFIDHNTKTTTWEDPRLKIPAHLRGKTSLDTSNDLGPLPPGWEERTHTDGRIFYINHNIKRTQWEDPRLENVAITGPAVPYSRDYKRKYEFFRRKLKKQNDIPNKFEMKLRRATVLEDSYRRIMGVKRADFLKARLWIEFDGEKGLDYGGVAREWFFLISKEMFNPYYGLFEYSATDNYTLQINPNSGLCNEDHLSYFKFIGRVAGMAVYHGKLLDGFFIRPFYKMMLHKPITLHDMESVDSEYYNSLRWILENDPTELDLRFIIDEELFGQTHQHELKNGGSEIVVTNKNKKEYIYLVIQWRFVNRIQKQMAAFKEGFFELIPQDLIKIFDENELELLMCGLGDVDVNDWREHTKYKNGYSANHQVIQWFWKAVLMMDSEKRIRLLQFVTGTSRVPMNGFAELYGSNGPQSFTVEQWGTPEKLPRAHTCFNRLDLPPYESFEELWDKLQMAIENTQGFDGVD
UniProt Q9HAU4: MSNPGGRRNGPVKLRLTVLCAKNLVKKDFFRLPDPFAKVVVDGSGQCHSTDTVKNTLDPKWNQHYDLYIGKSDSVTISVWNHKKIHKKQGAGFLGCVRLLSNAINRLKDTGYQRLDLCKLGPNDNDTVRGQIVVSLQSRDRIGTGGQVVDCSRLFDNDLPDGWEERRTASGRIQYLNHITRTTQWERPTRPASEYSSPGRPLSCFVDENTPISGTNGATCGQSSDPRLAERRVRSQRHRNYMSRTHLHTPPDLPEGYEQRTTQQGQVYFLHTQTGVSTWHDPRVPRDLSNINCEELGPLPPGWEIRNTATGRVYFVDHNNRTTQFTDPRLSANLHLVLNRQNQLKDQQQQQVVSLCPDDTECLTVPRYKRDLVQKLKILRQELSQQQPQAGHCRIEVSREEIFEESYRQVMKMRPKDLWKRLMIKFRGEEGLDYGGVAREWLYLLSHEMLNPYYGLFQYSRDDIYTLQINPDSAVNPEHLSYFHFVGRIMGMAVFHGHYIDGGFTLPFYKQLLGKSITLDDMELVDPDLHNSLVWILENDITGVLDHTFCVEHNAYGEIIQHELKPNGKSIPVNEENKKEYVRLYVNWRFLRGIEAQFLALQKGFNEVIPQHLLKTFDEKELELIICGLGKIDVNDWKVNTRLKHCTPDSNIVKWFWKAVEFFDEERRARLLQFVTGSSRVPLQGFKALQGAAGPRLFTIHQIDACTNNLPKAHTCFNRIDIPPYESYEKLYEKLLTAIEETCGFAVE
UniProt Q9HCE7: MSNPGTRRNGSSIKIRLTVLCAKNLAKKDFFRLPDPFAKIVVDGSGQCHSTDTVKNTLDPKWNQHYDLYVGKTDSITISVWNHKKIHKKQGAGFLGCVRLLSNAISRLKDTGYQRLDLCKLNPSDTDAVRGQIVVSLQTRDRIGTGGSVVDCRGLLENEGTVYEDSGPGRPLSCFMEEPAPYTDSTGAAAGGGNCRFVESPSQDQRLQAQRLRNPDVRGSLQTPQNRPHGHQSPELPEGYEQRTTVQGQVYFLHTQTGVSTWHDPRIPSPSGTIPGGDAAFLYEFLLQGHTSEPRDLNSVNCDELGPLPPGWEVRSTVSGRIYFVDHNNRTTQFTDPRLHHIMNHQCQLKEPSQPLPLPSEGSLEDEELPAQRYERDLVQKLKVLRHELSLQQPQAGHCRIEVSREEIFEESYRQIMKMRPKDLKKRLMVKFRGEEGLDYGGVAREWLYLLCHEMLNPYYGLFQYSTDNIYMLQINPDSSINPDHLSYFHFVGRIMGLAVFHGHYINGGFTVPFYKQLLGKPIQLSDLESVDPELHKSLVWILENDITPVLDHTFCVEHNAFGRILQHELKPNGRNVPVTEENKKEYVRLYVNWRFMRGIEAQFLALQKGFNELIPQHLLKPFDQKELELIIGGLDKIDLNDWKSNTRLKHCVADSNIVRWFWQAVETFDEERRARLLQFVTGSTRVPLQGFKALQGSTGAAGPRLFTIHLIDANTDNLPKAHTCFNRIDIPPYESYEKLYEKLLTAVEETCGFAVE

The target of assay [1] is bone morphogenetic protein 2 (BMP2), endogenous in human renal interstitial fibroblasts (human (endogenous in hRIFs)) (UniProt P12643). The assay can be described thus: co-IP; anti-BMP2 or IgG immune-precipitates from hRIFs transfected with Len-sh-ctrl or Len-sh-OMD; blots for SMURF1, SMURF2, NEDD4.
For the next assay, the target named is T1, Flag-OMD (UniProt Q99983).
T1 sequence: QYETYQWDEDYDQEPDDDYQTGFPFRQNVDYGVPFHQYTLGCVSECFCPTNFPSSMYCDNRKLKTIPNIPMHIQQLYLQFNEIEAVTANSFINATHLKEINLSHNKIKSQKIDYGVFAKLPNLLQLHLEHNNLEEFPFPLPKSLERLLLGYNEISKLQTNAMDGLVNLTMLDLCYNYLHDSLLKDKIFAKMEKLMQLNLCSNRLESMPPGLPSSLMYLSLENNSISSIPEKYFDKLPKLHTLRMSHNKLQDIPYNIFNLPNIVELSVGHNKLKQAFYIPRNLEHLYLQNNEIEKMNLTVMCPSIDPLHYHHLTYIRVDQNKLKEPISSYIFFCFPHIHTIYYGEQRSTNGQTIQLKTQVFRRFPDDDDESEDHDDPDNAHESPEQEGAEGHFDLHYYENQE
Briefly: co-IP; hRIFs transfected with p-HA-BMP2 or/and p-Flag-OMD; Flag-OMD and HA-BMP2 analysed by WB in immune-precipitates.

These are yes or no findings as the source states them, for the method shown. Binding seen in cells or lysates may run through a third protein. A result given as binding can be weak or reduced; the word gives no strength. For some of these results: Tags and fused reporters may be left off the sequences shown.

In the case of “E3 ubiquitin ligase NEDD4 (from UniProt P46934 1-1319) (enzyme)”, in assay [1], the binding result was “binds”.
Consider HA-BMP2 (from UniProt P12643), for which the binding result with Flag-OMD is listed as “binds”.
For “E3 ubiquitin ligase SMURF2 (from UniProt Q9HAU4 1-748) (enzyme)”, the binding entry in assay [1] is “binds”.
On to “E3 ubiquitin ligase SMURF1 (from UniProt Q9HCE7 1-757) (enzyme)”, for which the binding entry in assay [1] was “no binding”.
